How the values were obtained:
Set-up in all cases: species or system human
[1] = tested on: PBMC of healthy donors; assay: HLA class I ligandome analysis (LC-MS/MS) of healthy donor PBMC; conditions: HLA class I ligandome, 30 PBMC samples; first figure of the cell
[2] = tested on: BMNC of healthy donors; assay: HLA class I ligandome analysis (LC-MS/MS) of healthy donor BMNC; conditions: HLA class I ligandome, 5 BMNC samples; second figure of the cell
[3] = tested on: primary AML samples; assay: HLA class I ligandome analysis (W6/32 immunoaffinity purification, LC-MS/MS) of primary AML samples; conditions: for Number of positive AMLs: HLA class I ligandome, 15 AML samples
[4] = tested on: cancer tissues in comparison to non-cancerous tissues and organs; assay: Presentation profile / over-presentation by label-free LC-MS (XPRESIDENT), tumor versus normal tissues, other proliferative diseases; conditions: other proliferative diseases / organs (other than AML) that over- or exclusively present the peptide; Table 5

| Substance | Number of positive healthy donors (PBMC) [1] | Number of positive healthy donors (BMNC) [2] | Number of positive AMLs [3] | AML-exclusivity with regard to HLA presentation ([3]; versus PBMC and BMNC of healthy donors) | Proliferative disease and location thereof [4] |
| --- | --- | --- | --- | --- | --- |
| 402 (LEADPFLKY; listed as Homo sapiens) [compound 402] | 0/0 | 0/0 | 1 | AML-exclusivity | lung, non-small cell lung carcinoma, omentum, adenocarcinoma |
| 403 (TTQGQDVTLA; listed as Homo sapiens) [compound 403] | 1 | 0 | 0 |  | stomach, adenocarcinoma, lung, adenocarcinoma |
| 404 (AEYEDGFSIP; listed as Homo sapiens) [compound 404] | 0 | 1 | 0 |  | pancreas, adenocarcinoma, bone, osteosarcoma |
| 405 (AQISLPRI; listed as Homo sapiens) [compound 405] | 0 | 1 | 0 |  | spleen, chronic myeloid leukemia |
| 406 (DFTPEPAAR; listed as Homo sapiens) [compound 406] | 0/0 | 0/0 | 2 |  | spleen, chronic myeloid leukemia |
| 407 (DNTGITTVSK; listed as Homo sapiens) [compound 407] | 0 | 1 | 0 |  | spleen, chronic myeloid leukemia |
| 408 (EEAKQLVDKAY; listed as Homo sapiens) [compound 408] | 0/0 | 0/0 | 1 |  | spleen, chronic myeloid leukemia |
| 409 (ERRESIKQ; listed as Homo sapiens) [compound 409] | 0/0 | 0/0 | 1 |  | spleen, chronic myeloid leukemia |
| 410 (ETVGQLGTVLR; listed as Homo sapiens) [compound 410] | 0 | 1 | 1 |  | spleen, chronic myeloid leukemia |
| 411 (FEQVMRIGL; listed as Homo sapiens) [compound 411] | 0/0 | 0/0 | 1 |  | spleen, chronic myeloid leukemia |
| 412 (FSMQQRQAL; listed as Homo sapiens) [compound 412] | 0/0 | 0/0 | 1 |  | spleen, chronic myeloid leukemia |
| 413 (GVPFFSSLR; listed as Homo sapiens) [compound 413] | 0 | 1 | 1 |  | spleen, chronic myeloid leukemia |
| 414 (IVRFPTDQL; listed as Homo sapiens) [compound 414] | 0 | 1 | 1 |  | spleen, chronic myeloid leukemia |
| 415 (KQPVAATRTAV; listed as Homo sapiens) [compound 415] | 0/0 | 0/0 | 1 |  | spleen, chronic myeloid leukemia |
| 416 (LGASNRAFV; listed as Homo sapiens) [compound 416] | 0 | 1 | 0 |  | spleen, chronic myeloid leukemia |
| 417 (NPRWDGERL; listed as Homo sapiens) [compound 417] | 0/0 | 0/0 | 1 |  | spleen, chronic myeloid leukemia |
| 418 (NVFTNAFRY; listed as Homo sapiens) [compound 418] | 0/0 | 0/0 | 1 |  | spleen, chronic myeloid leukemia |
| 419 (QPMEPNPRVPL; listed as Homo sapiens) [compound 419] | 0/0 | 0/0 | 1 |  | spleen, chronic myeloid leukemia |
| 420 (QPVAATRTAV; listed as Homo sapiens) [compound 420] | 0 | 1 | 0 |  | spleen, chronic myeloid leukemia |
| 421 (RLFEQVMRI; listed as Homo sapiens) [compound 421] | 0/0 | 0/0 | 2 |  | spleen, chronic myeloid leukemia |
| 422 (SEEPLARNL; listed as Homo sapiens) [compound 422] | 0/0 | 0/0 | 1 |  | spleen, chronic myeloid leukemia |
| 423 (TIRNQINAL; listed as Homo sapiens) [compound 423] | 0/0 | 0/0 | 1 |  | spleen, chronic myeloid leukemia |
| 424 (VLGPTAMRK; listed as Homo sapiens) [compound 424] | 0 | 1 | 0 |  | spleen, chronic myeloid leukemia |
| 425 (AELRNATAA; listed as Homo sapiens) [compound 425] | 1 | 0 | 0 |  | pancreas, adenocarcinoma, breast, carcinoma |
| 426 (DVPDGTLVTVM; listed as Homo sapiens) [compound 426] | 1 | 0 | 3 |  | pancreas, adenocarcinoma, breast, carcinoma |
| 427 (LPIAFKVV; listed as Homo sapiens) [compound 427] | 1 | 0 | 1 |  | pancreas, adenocarcinoma, breast, carcinoma |
| 428 (SAMGSATRY; listed as Homo sapiens) [compound 428] | 0/0 | 0/0 | 1 |  | pancreas, adenocarcinoma, breast, carcinoma |
| 429 (AEKQGHQW; listed as Homo sapiens) [compound 429] | 1 | 0 | 0 |  | stomach, metastatic, ovary, granulosa cell tumor |
| 430 (GEQKPTGTF; listed as Homo sapiens) [compound 430] | 0/0 | 0/0 | 1 |  | stomach, metastatic, ovary, granulosa cell tumor |
| 431 (GQFSKPFSF; listed as Homo sapiens) [compound 431] | 1 | 0 | 0 |  | stomach, metastatic, ovary, granulosa cell tumor |
